Laboratory results: PubChem BioAssay AID1347076 (National Center for Advancing Translational Sciences (NCATS), 2019)
About 13,000 (3.2%) of roughly 400,000 compounds were called active. Inconclusive means that the source gave no clear call. Such entries were picked first, then a sample of the others. Calls follow the shape of the dose curve; as a rule, active = well fitted cell-killing curve with a large enough effect; inconclusive = small, poorly fitted or top-dose-only effect, or effect the other way; inactive = flat fitted curve, though single readings scatter. A potency beside an inconclusive call is a rough fit, not a confirmed value.

Assay: qHTS assay for MDR1-selective chemotherapeutics: Primary screen using the drug-selected MDR subline cells KB-V1; also: nearly all actives have a fitted effect of over 60% in size
Details: KB-V1 MDR cells viability, CellTiter-Glo, 72 h; activity change, negative = cytotoxicity: at 46.1 µM (top of the series)
In short: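 Compound-treated KB-V1 multidrug-resistant cells, 72 h, 37 degrees C; viability by CellTiter-Glo. Fitted qHTS curves give the values.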
% is scaled to controls: 0 for no effect and ±100 for the full control effect; potency is read from the fitted curve at half-maximal effect.

SMILES	Potency	activity change, negative = cytotoxicity
C[C@]12CC[C@H](O)C[C@H]1CC[C@@H]1[C@@H]2C[C@@H](O)[C@]2(C)[C@@H](C3=CC(=O)OC3)CC[C@]12O	active: 1.64 µM	–
CC/C(=C\C=C\[C@@H]1C=C[C@@H]2CCC[C@H]2[C@@H]1C(=O)c1ccc[nH]1)[C@@H]1O[C@@H]([C@@H](C)C(=O)O)CC[C@@H]1C	inconclusive: 18.4 µM [cytotoxic, single point]	–
COc1ccc(CC(=O)N2CCN(C)CC2)cc1OC	inactive	–
CCCCCN1C(=O)c2cc(OC)ccc2[C@@]2(C(=O)OCC)Cc3cc(Cl)ccc3[C@@H]12	active: 1.64 µM	–
COc1ccc(C(=O)CC(c2ccc3c(c2)OCO3)c2c(O)c3ccccc3oc2=O)cc1OC (centres undefined)	inactive	–
Cc1ccccc1-n1c(O)c(/C=C2/C(c3ccccc3)=Nc3ccccc32)c(=O)[nH]c1=O	active: 1.46 µM	–
O=c1c2ccccc2nc(/C=C\c2ccccc2[N+](=O)[O-])n1-c1ccccc1O	inconclusive: 25.9 µM [cytotoxic, single point]	–
Clc1ccc2c(c1)C(c1ccccc1Cl)=NCc1nnc(N3CCN(CCSc4ccccc4)CC3)n1-2	inconclusive: 18.4 µM [cytotoxic, partial curve, poor fit]	–
COc1ccc(CC(=O)C2C(=O)N(C)c3ccccc32)cc1OC (centres undefined)	inconclusive: 29.1 µM [cytotoxic, single point]	–
CCN(CC)c1ccc(N=Cc2c(O)n(-c3ccc(Cl)cc3)c(=O)[nH]c2=O)cc1	inconclusive: 29.1 µM [cytotoxic, single point]	–
Cn1cnc([N+](=O)[O-])c1Sc1ccc([N+](=O)[O-])cc1	inactive	–
CCCCn1c(O)c(C(CC)=NCCN2CCOCC2)c(=O)[nH]c1=O	inconclusive: 20.6 µM [cytotoxic, single point]	–
Cc1cc(OCC(=O)N[C@H](C(=O)O)c2ccccc2)c2c3c(c(=O)oc2c1)CCC3	inconclusive: 7.31 µM [rising, partial curve, poor fit]	–
CC(=O)N(C)CC#CCN1CCCC(CO)C1 (centres undefined)	inactive	–
C=C1[C@@H](C)[C@H]2[C@H](Cc3ccccc3)NC(=O)[C@]23OC(=O)/C=C/[C@H](O)CCC[C@@H](C)C/C=C/[C@H]3[C@@H]1O	inconclusive: 29.1 µM [cytotoxic, single point]	–
CC(C)CCn1c(=O)c(C(=O)NCc2ccc3c(c2)OCO3)c(O)c2ccccc21	inconclusive: 20.6 µM [cytotoxic, partial curve, poor fit]	–
CN(C)c1nc(OCCNC(=O)COc2ccc(Cl)cc2Cl)nc(N2CCCCC2)n1	inconclusive: 2.59 µM [cytotoxic, full curve, poor fit]	–
Cc1ccc(-c2nc(CN3C(=O)CN=C(c4ccccc4Cl)c4cc(Cl)ccc43)c(C)o2)cc1	inconclusive: 29.1 µM [cytotoxic, single point]	–
ClCCN(CCCl)c1ccc(/C=C/c2ccnc3ccccc23)cc1	inconclusive: 16.4 µM [cytotoxic, single point]	–
Nc1cccc2c1Cc1cc([N+](=O)[O-])ccc1-2	inconclusive: 5.8 µM [cytotoxic, full curve, poor fit]	–
Cc1cc(C)cc(N2C(=O)NC(=O)/C(=C\C=C\c3ccco3)C2=O)c1	active: 23.1 µM	–
Cc1cccc(C)c1NC(=O)CN(C)CC(=O)Nc1ccc(C#N)c(Cl)c1	inconclusive: 18.4 µM [cytotoxic, single point]	–

SMILES	Potency	activity change, negative = cytotoxicity
CCC(=NCc1ccco1)c1c(O)n(Cc2ccccc2)c(=O)[nH]c1=O	active: 3.66 µM	–
COc1cc2c3c(c1OC)-c1cc(O)ccc1CC3NCC2 (centres undefined)	inactive	–
C=CCn1c(O)c(/C=C2/C=CC=N2)c(=O)[nH]c1=O	inconclusive: 29.1 µM [cytotoxic, single point]	–
O=C(Nc1ccc2c(c1)OCCO2)c1cccn(Cc2ccccc2)c1=O	inconclusive: 13 µM [cytotoxic, partial curve, poor fit]	–
CCc1ccc(CN2CCN(Cc3ccc(SC)cc3)CC2)cc1	inconclusive: 6.51 µM [cytotoxic, partial curve]	–
COc1ccc(Oc2cc(NC(=O)c3nn(C)cc3[N+](=O)[O-])cc([N+](=O)[O-])c2)cc1	inconclusive: 18.4 µM [cytotoxic, single point]	–
Nc1c(C(=O)Nc2ccc(F)c(Cl)c2)sc2nc3c(cc12)N1CCC3CC1	inconclusive: 8.2 µM [cytotoxic, partial curve]	–
COc1c2c(cc3c1OCO3)CC[N+](C)=C2	inactive	–
CC(=O)C1(c2ccccc2)CCN(C(=O)C2CCC(=O)N(CCc3cccc(F)c3)C2)CC1 (centres undefined)	inconclusive: 10.3 µM [cytotoxic, partial curve]	–
Cc1cccn2c(=O)c3c(nc12)N1CCc2ccccc2C1C1(C3)C(=O)NC(=O)N(C)C1=O (centres undefined)	inconclusive: 29.1 µM [rising, single point]	–
C(CCc1nn[nH]n1)CCc1nn[nH]n1	inconclusive: 14.6 µM [rising, single point]	–
CCOc1cc2c(cc1OCC)-n1cccc1C(c1ccccc1O)NC2 (centres undefined)	inconclusive: 2.91 µM [cytotoxic, partial curve]	–
CCOP(=O)(OCC)C(NC(=O)c1ccccc1C)C(Cl)(Cl)Cl (centres undefined)	inconclusive: 16.4 µM [cytotoxic, partial curve, poor fit]	–
O=C1CN=C(c2ccccc2)c2cc([N+](=O)[O-])ccc2N1	inactive	–
CCOc1ccc2nc(NC(=O)c3cccn(Cc4ccc(C)cc4)c3=O)sc2c1	inconclusive: 0.58 µM [cytotoxic, full curve, poor fit]	–
CC(C)CN(C(=O)CN1CC=C(c2ccccc2)CC1)c1c(N)n(CC(C)C)c(=O)[nH]c1=O	inactive	–
Cc1cc(C)cc(NC(=S)NC2CC3CCCC(C2)N3Cc2cccs2)c1 (centres undefined)	inconclusive: 16.4 µM [cytotoxic, single point]	–
Nc1nc(SCCC(F)=C(F)F)n[nH]1	inconclusive: 29.1 µM [cytotoxic, single point]	–
Cn1c(=O)c2c(ncn2CCCl)n(C)c1=O	inactive	–
CCCNS(=O)(=O)c1ccc(OCC(=O)N2CCN(Cc3ccc4c(c3)OCO4)CC2)cc1	inconclusive: 14.6 µM [cytotoxic, partial curve, poor fit]	–
Cc1ccc(S(=O)(=O)N[C@@H](CCCCN)C(=O)CCl)cc1	inactive	–
C/C(=N\N1CCCCC1)c1c(O)[nH]c(=O)[nH]c1=O	inconclusive: 23.1 µM [cytotoxic, single point]	–

Compounds from the list above that have a furan ring, fused or not:
SMILES	Potency	activity change, negative = cytotoxicity
Cc1cc(C)cc(N2C(=O)NC(=O)/C(=C\C=C\c3ccco3)C2=O)c1	active: 23.1 µM	–
CCC(=NCc1ccco1)c1c(O)n(Cc2ccccc2)c(=O)[nH]c1=O	active: 3.66 µM	–

Reformatted: 3 of the compounds above.
Cn1cnc([N+](=O)[O-])c1Sc1ccc([N+](=O)[O-])cc1
  Potency: inactive
C=C1[C@@H](C)[C@H]2[C@H](Cc3ccccc3)NC(=O)[C@]23OC(=O)/C=C/[C@H](O)CCC[C@@H](C)C/C=C/[C@H]3[C@@H]1O
  Potency: inconclusive: 29.1 µM [cytotoxic, single point]
Cc1cccc(C)c1NC(=O)CN(C)CC(=O)Nc1ccc(C#N)c(Cl)c1
  Potency: inconclusive: 18.4 µM [cytotoxic, single point]

Going on with the list.

SMILES	Potency	activity change, negative = cytotoxicity
O=c1[nH]c2ccccc2n1C1CCN(C(c2nnnn2-c2ccc3c(c2)OCCO3)C2CC2)CC1 (centres undefined)	inactive	–
C[C@]12CC[C@H](N)CC1=CCC1C2CC[C@@]2(C)C1CC[C@@H]2O (some centres undefined)	inactive	–
CCOC(=O)[C@]12Cc3cc(C)ccc3[C@H]1N(CCC(=O)OC)C(=O)c1ccccc12	active: 4.11 µM	–
O=P(Nc1ccccc1)(Oc1ccccc1)Oc1ccccc1	inconclusive: 29.1 µM [cytotoxic, partial curve, poor fit]	–
COC1=CC(=O)[C@]2(C=C1OC)OC[C@@H]1Oc3c(ccc4c3C=CC(C)(C)O4)C(=O)[C@@H]12	inconclusive: 11.6 µM [cytotoxic, partial curve, poor fit]	–
C=C1C(C)C2C(Cc3ccccc3)NC(=O)C23OC(=O)/C=C/C(O)CCCC(C)C/C=C/C3C1O (centres undefined)	inconclusive: 3.26 µM [cytotoxic, full curve]	–
COC(=O)C1=C(c2cccc(OC)c2OC)C[C@@H]2CC[C@H]1N2C(=O)N1CCCC1	inactive	–
CN1CCN(C(=O)COc2ccc(S(=O)(=O)N(C)Cc3ccccc3)cc2)CC1	inconclusive: 18.4 µM [cytotoxic, single point]	–
CC1CCN(C(=O)c2ccc(N3CC4CC(C3)c3cccc(=O)n3C4)c([N+](=O)[O-])c2)CC1 (centres undefined)	inconclusive: 20.6 µM [cytotoxic, single point]	–
COc1cccc(NP(=O)(Oc2ccc(Cl)cc2)Oc2ccc(Cl)cc2)c1	active: 13 µM	–
Fc1ccc2c(c1)nnn2C1CCN(Cc2c(Cl)cccc2Cl)CC1	inconclusive: 6.51 µM [cytotoxic, partial curve]	–
O=C(/C=C/c1ccc2c(c1)OCO2)c1c(O)n(CCC2=CCCCC2)c(=O)[nH]c1=O	active: 7.31 µM	–
C=CCn1c(O)c(/C=C2/C=c3ccccc3=N2)c(=O)[nH]c1=S	inconclusive: 20.6 µM [cytotoxic, partial curve, poor fit]	–
CCc1ccc(OCC(=O)N2CCN(Cc3ccc4c(c3)OCO4)CC2)cc1	inconclusive: 18.4 µM [cytotoxic, single point]	–
CCCCC(=O)N/N=C/c1c(O)n(CCc2ccccc2)c(=O)[nH]c1=O	inconclusive: 16.4 µM [cytotoxic, partial curve, poor fit]	–
Cc1ccccc1CS(=O)(=O)Cc1ccc(C(=O)N2CCC3(CC2)OCCO3)o1	inconclusive: 20.6 µM [cytotoxic, single point]	–
C/C(=N\NC(=O)c1ccncc1)c1c(O)[nH]c(=O)[nH]c1=O	inconclusive: 29.1 µM [rising, single point]	–
Cc1ccc(-c2cc(-c3ccc(C)cc3)[n+](-c3ccc(C(=O)[O-])cc3)c(-c3ccc(C)cc3)c2)cc1	inactive	–
Cc1ccc(N2C(=O)NC(=O)/C(=C/c3ccoc3)C2=O)cc1	inactive	–
c1ccc(CNc2c3c(nc4ccccc24)CCC3)cc1	–	inconclusive: -67%
